Measurements reported in paper PMC12712735.

Chains of the proteins cited; added tags and fusions are not shown. Lines headed by an entry give the natural chain unless they say otherwise; changes in a name come on top.
UniProt P24347: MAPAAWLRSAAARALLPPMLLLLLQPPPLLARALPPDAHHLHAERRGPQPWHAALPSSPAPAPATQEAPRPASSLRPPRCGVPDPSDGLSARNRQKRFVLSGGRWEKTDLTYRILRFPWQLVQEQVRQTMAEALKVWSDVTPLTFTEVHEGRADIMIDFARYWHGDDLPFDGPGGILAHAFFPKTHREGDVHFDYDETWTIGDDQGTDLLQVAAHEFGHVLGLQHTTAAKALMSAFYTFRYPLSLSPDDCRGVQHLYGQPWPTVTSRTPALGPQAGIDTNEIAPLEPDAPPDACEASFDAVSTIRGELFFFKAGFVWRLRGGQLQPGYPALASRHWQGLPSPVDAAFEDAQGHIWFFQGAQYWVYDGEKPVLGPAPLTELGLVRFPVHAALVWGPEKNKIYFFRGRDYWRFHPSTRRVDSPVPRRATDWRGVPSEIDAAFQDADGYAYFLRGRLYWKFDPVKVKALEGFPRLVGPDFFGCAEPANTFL
UniProt P08253: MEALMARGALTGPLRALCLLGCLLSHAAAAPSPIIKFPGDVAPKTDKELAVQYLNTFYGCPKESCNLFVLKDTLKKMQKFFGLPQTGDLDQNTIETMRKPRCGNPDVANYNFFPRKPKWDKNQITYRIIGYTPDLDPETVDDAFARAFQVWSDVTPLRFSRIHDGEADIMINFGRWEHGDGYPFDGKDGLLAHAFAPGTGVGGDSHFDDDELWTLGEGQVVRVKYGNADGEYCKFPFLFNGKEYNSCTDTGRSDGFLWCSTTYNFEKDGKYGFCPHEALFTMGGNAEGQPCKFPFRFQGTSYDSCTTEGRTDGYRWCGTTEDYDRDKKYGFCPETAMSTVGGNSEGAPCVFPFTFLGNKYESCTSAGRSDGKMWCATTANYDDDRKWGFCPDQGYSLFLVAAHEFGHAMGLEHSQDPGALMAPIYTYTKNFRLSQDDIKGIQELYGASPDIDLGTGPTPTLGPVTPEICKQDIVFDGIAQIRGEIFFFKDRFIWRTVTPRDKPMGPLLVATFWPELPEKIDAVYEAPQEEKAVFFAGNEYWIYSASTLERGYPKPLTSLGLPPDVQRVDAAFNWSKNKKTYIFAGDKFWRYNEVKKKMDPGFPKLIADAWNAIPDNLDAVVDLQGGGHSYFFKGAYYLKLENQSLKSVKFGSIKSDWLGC
UniProt P14780: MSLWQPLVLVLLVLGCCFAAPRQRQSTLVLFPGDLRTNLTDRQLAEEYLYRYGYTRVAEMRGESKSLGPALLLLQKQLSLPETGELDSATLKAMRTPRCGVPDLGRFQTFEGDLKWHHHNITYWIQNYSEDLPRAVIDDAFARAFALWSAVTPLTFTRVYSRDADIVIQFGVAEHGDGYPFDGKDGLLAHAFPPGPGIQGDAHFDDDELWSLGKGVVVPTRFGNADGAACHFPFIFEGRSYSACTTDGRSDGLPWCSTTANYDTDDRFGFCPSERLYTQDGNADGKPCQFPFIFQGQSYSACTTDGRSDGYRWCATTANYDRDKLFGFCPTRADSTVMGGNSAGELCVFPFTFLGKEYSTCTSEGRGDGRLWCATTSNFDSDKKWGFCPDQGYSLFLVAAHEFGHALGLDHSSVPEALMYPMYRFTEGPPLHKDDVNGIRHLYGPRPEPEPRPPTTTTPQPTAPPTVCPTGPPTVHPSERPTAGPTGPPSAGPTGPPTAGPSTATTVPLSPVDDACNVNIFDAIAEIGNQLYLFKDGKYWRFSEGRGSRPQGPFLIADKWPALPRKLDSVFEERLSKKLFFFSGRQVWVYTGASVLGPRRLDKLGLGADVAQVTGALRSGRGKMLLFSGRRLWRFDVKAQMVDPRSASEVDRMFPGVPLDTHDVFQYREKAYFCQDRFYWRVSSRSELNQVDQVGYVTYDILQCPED

Biological target: T1, FLAG-tagged serglycin (SRGN) (UniProt P10124)
T1 sequence: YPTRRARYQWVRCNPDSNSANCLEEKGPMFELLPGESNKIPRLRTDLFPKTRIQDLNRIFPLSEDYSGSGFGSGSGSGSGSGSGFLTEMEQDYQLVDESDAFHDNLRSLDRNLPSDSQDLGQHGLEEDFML
Test: co-IP; HEK293T cells transfected with SRGN-Flag for 48 h; cell lysates incubated with anti-Flag beads; immunoblot with anti-Flag, anti-MMP11, anti-MMP9 and anti-MMP2; IP/Co-IP kit (ThermoFisher 88805)

binding | Substance
no binding | MMP11 (from UniProt P24347) (enzyme)
binds | matrix metalloproteinase 2 (MMP2) (from UniProt P08253) (enzyme)
binds | matrix metalloproteinase 9 (MMP9) (from UniProt P14780) (enzyme)

No constants are given. Whether binding was seen depends on the method and setting. In cells and extracts the contact can be indirect. Binding calls can cover weak binding; strength is not graded here. Sequences can lack the tags named with a protein.
